# According to patent publication US20240050414A1, “A COMPOSITION FOR USE IN THE TREATMENT OF INFERTILITY” (priority 2020, published 2024):
# Assay: LC-MS/MS ergothionine measurement in seminal plasma and sperm cells
# Parameters: species or system human
# Conditions: endogenous, mass spectrometric analysis
smiles,measurement,value
C[N+](C)(C)[C@@H](Cc1c[nH]c(=S)[nH]1)C(=O)[O-] [ergothionine],level of ergothionine in human seminal plasma,0 to 290 µM
same,level of ergothionine in human sperm cells,0.42 to 49 µM
